Columns and labels:
Assay in all cases: filter binding
[1] = target: plasminogen activator inhibitor I (UniProt P05121); settings: specificity, label: 32P
thrombin = settings: specificity, label: 32P
[2] = system: VEGF165 (recombinant human vascular endothelial growth factor, 165 aa form) (Homo sapiens); settings: purified recombinant protein; protein details: gift from N. Ferrara, Genentech; single-stranded DNA; variant of ssDNA 23

GGCCGGUAGUCGCAUGGCCCAUCGCGCCCGG [ligand 100t]
Kd ([1]; variant of ligand 100): > 10 µM | Kd (thrombin; variant of ligand 100): > 10 µM

GGGCATCTAACCCAGACCTACCGGAACGTTATCGCTTGTG [23t]
Kd [2]: > 0.2 µM

GGAAGCUUGAUGGGUGACACACGUCAUGCCGAGCU [ligand 44t]
Kd ([1]; variant of ligand 44): > 10 µM | Kd (thrombin; variant of ligand 44): > 10 µM

Reference: US5811533
